Publication PMC12639696
No constants are given. Whether binding was seen depends on the method and setting. For part of these data: Binding seen in cells or lysates may run through a third protein. Some binding calls cover weakened binding; strength is not graded here. Tags and fused reporters may be left off the sequences shown.

T1: HA-SENP1 (sentrin-specific protease 1, full-length) (UniProt Q9P0U3)
T1 sequence: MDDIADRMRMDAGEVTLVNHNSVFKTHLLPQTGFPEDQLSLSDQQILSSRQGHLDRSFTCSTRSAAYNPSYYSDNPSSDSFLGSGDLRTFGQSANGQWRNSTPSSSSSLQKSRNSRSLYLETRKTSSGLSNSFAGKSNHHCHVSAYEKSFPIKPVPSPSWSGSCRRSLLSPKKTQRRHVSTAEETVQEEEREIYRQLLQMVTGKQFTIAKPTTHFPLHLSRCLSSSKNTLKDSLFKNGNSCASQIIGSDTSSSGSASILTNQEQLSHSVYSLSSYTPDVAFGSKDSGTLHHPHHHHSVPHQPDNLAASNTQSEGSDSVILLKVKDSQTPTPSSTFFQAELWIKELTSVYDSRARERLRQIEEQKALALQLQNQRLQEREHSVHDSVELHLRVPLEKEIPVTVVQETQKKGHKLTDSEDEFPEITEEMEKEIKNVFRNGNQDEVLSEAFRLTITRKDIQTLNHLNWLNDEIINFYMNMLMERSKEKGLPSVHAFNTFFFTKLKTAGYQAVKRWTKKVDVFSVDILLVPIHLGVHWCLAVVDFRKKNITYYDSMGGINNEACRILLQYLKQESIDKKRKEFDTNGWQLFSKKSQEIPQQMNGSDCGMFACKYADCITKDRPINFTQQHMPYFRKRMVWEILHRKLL

T2: GST-SENP1 (UniProt Q9P0U3)
T2 sequence: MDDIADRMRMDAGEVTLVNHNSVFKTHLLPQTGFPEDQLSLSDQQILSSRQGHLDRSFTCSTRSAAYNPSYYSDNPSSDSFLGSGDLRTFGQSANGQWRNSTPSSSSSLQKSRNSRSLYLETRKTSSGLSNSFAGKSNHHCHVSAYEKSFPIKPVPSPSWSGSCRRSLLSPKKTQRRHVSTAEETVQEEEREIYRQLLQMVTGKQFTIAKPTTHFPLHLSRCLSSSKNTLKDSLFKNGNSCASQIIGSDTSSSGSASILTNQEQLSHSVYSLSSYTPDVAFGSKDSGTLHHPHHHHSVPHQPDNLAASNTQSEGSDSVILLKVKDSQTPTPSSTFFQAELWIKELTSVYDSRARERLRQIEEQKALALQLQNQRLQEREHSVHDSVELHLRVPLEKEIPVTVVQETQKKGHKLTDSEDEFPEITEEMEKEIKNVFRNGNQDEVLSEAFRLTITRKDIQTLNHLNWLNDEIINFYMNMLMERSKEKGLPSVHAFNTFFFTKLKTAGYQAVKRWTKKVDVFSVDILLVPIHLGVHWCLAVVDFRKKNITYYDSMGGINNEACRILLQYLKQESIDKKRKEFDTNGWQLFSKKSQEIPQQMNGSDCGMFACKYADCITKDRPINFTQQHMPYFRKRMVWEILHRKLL

B1: Flag-DAPK1 (848–1288 aa) (domain or fragment, UniProt P53355 848-1288)
chain: IQLNQVIFWLSFLKSLVPVEEPIAFGGKLKNPLQVVLVATHADIMNVPRPAGGEFGYDKDTSLLKEIRNRFGNDLHISNKLFVLDAGASGSKDMKVLRNHLQEIRSQIVSVCPPMTHLCEKIISTLPSWRKLNGPNQLMSLQQFVYDVQDQLNPLASEEDLRRIAQQLHSTGEINIMQSETVQDVLLLDPRWLCTNVLGKLLSVETPRALHHYRGRYTVEDIQRLVPDSDVEELLQILDAMDICARDLSSGTMVDVPALIKTDNLHRSWADEEDEVMVYGGVRIVPVEHLTPFPCGIFHKVQVNLCRWIHQQSTEGDADIRLWVNGCKLANRGAELLVLLVNHGQGIEVQVRGLETEKIKCCLLLDSVCSTIENVMATTLPGLLTVKHYLSPQQLREHHEPVMIYQPRDFFRAQTLKETSLTNTMGGYKESFSSIMCFGCH
B2: His-DAPK1 (848–1288 aa) (domain or fragment, UniProt P53355 848-1288)
chain: IQLNQVIFWLSFLKSLVPVEEPIAFGGKLKNPLQVVLVATHADIMNVPRPAGGEFGYDKDTSLLKEIRNRFGNDLHISNKLFVLDAGASGSKDMKVLRNHLQEIRSQIVSVCPPMTHLCEKIISTLPSWRKLNGPNQLMSLQQFVYDVQDQLNPLASEEDLRRIAQQLHSTGEINIMQSETVQDVLLLDPRWLCTNVLGKLLSVETPRALHHYRGRYTVEDIQRLVPDSDVEELLQILDAMDICARDLSSGTMVDVPALIKTDNLHRSWADEEDEVMVYGGVRIVPVEHLTPFPCGIFHKVQVNLCRWIHQQSTEGDADIRLWVNGCKLANRGAELLVLLVNHGQGIEVQVRGLETEKIKCCLLLDSVCSTIENVMATTLPGLLTVKHYLSPQQLREHHEPVMIYQPRDFFRAQTLKETSLTNTMGGYKESFSSIMCFGCH

Columns and labels:
[1] = molecular target: T1, HA-SENP1 (sentrin-specific protease 1, full-length); experiment: co-IP; HEK-293T cells co-transfected with Flag-DAPK1 (or its mutants) and HA-SENP1 (or its truncated mutants); antibodies with cell lysates 3-6 h, protein A/G agarose 2-3 h at 4 °C, washed with NP-40 lysis buffer; immunoblot
[2] = molecular target: T2, GST-SENP1; experiment: pull-down; supernatants of transfected HEK-293T cells incubated with purified GST fusion proteins from E. coli about 2 h at 4 °C, then glutathione-agarose beads 2 h at 4 °C; washed with lysis buffer; immunoblot (anti-Myc or anti-Flag); only the target purified
[3] = molecular target: T2, GST-SENP1; experiment: pull-down; purified His-DAPK1 (848–1288 aa) incubated with GST or GST-SENP1 proteins; immunoblot with an anti-His antibody; both purified

Binder	binding [1]	binding [2]	binding [3]
B1	binds	binds	–
B2	–	–	binds
